Paper PMC7696408

Sequences of proteins named here, by UniProt entry; tags and fusion partners are left off.
UniProt P31751: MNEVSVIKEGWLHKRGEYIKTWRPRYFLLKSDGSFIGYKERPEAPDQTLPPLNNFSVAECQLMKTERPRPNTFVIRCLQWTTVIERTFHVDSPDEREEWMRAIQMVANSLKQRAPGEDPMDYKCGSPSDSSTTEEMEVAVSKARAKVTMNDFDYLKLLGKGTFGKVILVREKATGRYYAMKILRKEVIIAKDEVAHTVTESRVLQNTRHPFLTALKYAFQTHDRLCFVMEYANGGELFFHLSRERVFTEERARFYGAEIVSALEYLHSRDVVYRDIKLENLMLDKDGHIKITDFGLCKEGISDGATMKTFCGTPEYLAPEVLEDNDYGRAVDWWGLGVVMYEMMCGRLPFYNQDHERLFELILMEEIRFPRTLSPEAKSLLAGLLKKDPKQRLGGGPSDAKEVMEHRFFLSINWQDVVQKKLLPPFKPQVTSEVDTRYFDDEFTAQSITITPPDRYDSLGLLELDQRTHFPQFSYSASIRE
UniProt Q8TAD4: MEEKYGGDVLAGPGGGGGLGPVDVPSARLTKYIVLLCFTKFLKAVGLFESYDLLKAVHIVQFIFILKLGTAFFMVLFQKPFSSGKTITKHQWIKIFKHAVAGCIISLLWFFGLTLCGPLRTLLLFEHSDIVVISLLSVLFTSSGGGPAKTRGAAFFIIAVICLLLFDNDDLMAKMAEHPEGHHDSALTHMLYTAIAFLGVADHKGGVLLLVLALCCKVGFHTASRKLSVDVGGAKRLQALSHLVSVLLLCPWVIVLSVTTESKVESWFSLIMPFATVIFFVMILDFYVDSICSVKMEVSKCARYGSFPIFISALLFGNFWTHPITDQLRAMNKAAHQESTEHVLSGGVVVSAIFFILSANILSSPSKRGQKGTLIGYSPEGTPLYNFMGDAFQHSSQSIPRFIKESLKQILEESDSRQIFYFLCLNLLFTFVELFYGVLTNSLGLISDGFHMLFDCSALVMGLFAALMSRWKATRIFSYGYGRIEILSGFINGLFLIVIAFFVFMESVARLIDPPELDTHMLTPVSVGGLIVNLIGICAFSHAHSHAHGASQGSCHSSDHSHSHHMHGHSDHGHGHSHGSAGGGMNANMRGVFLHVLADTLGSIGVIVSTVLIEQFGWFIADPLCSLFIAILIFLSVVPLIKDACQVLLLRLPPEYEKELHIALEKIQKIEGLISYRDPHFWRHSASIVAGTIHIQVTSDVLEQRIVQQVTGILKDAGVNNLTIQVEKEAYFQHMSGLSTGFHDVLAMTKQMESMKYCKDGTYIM
UniProt Q8N9U0: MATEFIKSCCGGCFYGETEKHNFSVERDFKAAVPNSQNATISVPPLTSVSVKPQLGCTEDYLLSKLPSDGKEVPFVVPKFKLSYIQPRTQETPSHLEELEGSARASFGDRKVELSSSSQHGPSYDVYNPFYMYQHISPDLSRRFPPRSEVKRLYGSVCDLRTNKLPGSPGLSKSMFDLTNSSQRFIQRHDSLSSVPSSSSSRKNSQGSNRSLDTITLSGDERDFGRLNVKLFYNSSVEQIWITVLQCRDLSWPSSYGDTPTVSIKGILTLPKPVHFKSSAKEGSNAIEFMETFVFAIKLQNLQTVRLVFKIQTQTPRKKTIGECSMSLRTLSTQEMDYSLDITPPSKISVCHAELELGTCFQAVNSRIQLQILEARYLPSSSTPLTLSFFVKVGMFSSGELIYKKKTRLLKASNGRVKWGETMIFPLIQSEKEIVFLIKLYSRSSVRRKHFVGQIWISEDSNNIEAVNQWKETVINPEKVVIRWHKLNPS
UniProt Q12955: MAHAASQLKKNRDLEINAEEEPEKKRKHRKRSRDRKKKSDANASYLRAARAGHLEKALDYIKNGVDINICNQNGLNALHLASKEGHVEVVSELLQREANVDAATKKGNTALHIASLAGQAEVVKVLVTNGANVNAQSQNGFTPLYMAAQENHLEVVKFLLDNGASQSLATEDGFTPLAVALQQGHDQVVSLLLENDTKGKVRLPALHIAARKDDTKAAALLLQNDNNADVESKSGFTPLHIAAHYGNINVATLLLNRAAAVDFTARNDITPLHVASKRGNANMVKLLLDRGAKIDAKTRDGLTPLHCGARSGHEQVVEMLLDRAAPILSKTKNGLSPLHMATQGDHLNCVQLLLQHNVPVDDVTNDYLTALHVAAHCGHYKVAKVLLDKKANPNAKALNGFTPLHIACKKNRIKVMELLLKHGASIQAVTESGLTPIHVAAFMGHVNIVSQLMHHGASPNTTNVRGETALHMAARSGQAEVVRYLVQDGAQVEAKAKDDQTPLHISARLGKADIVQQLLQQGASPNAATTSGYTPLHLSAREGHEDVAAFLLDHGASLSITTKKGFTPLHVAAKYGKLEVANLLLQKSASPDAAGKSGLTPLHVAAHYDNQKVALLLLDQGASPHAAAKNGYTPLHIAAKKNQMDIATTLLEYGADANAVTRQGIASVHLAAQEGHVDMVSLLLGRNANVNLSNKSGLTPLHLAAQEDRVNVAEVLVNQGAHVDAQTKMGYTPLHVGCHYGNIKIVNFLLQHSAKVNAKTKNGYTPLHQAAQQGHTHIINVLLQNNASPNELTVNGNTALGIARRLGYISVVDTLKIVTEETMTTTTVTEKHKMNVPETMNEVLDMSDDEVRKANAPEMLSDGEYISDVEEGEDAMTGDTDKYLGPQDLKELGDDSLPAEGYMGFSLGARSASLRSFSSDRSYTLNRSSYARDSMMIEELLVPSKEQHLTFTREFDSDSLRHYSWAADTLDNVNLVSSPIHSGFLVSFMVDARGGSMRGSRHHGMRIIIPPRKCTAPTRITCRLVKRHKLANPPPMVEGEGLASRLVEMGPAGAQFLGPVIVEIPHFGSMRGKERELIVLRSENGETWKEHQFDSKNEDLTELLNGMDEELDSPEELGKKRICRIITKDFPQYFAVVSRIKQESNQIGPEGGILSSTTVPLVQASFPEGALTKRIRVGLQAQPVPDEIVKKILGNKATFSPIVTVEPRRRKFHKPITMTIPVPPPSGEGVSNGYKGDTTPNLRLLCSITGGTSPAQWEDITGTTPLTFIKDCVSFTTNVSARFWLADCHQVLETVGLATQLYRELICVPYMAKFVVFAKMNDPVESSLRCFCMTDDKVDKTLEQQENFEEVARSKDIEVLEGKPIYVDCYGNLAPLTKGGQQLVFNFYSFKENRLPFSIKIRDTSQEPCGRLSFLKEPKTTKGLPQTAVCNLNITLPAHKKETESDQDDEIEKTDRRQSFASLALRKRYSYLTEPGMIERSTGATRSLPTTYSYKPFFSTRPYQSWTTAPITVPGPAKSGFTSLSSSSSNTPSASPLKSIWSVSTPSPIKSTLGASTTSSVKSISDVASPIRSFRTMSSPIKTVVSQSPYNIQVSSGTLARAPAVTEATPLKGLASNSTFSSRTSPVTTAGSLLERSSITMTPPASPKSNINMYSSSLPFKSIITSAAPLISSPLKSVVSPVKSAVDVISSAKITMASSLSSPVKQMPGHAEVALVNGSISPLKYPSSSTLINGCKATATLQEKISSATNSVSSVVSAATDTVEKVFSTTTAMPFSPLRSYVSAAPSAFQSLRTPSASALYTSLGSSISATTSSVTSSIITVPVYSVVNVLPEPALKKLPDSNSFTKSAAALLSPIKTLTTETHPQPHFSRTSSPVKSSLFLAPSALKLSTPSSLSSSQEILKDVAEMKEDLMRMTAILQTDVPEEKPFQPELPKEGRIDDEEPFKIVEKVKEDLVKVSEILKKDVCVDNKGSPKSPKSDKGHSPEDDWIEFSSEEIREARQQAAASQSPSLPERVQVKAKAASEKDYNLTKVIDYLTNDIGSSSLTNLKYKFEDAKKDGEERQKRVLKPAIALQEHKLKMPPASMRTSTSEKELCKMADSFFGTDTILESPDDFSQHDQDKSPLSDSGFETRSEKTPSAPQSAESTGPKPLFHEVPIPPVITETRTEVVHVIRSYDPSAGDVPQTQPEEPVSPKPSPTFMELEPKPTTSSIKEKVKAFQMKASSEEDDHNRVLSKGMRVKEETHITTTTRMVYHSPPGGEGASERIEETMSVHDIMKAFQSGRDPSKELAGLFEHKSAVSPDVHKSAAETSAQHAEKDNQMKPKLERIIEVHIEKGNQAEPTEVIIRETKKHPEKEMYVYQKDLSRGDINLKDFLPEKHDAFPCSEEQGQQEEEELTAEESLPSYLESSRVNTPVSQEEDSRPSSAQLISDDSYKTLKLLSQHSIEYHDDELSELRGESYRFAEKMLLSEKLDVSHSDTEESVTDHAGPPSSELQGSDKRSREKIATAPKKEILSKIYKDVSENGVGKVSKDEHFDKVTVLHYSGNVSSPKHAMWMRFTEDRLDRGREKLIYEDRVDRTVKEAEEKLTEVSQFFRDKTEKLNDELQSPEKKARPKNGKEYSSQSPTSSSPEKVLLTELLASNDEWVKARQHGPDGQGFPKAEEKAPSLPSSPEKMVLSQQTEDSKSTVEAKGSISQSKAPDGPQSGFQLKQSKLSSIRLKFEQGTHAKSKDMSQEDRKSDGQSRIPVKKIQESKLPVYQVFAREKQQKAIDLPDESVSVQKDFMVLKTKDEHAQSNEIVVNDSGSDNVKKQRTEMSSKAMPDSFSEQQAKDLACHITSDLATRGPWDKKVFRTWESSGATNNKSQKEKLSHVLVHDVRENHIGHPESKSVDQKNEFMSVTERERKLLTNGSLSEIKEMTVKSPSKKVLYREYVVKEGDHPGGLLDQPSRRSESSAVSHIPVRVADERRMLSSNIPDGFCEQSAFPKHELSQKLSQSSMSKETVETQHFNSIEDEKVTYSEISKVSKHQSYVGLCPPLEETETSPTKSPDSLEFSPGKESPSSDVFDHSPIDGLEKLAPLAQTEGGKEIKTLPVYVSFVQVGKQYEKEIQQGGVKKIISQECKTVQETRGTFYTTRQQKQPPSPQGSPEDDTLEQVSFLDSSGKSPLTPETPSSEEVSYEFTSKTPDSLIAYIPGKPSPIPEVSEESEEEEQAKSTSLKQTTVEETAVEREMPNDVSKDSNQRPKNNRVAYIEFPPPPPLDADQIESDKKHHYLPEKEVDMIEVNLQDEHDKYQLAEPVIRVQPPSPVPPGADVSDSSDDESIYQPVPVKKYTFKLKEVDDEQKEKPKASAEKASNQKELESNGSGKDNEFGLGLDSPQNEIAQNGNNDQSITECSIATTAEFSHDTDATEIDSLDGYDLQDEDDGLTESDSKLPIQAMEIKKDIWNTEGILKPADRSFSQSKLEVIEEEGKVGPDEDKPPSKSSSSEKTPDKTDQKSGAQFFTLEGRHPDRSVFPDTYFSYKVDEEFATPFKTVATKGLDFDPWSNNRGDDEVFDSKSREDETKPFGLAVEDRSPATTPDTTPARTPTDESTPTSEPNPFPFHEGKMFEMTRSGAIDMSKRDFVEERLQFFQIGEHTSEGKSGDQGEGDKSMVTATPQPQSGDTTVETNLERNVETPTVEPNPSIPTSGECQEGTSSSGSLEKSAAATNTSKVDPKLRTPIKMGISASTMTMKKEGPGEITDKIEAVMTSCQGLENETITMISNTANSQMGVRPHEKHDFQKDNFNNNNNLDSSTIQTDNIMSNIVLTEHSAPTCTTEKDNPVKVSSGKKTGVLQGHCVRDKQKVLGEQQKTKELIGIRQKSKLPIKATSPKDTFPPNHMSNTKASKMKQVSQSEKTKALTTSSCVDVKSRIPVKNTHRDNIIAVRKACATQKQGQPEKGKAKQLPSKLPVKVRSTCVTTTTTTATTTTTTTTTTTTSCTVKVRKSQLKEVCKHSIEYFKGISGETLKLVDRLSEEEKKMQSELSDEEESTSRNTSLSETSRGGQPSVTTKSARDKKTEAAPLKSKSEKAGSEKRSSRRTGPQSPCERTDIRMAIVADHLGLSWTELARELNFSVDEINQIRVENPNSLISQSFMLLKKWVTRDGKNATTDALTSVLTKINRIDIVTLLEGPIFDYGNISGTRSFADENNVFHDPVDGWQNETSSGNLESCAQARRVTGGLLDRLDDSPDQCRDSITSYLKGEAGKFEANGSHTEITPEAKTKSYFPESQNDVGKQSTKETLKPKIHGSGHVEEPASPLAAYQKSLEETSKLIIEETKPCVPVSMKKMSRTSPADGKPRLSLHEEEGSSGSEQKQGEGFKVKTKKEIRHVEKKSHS
UniProt P27361: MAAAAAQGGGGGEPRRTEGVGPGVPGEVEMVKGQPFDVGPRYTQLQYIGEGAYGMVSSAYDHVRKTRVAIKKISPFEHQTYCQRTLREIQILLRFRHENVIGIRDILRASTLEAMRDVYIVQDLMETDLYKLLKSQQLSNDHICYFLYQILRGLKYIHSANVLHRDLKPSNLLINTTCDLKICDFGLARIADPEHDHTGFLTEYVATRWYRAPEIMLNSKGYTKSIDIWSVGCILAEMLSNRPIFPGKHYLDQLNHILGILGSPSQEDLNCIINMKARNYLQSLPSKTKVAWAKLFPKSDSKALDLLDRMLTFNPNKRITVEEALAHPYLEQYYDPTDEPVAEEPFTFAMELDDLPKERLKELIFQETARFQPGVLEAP

Legend:
Assay in all cases: proximity labelling; BioID: FlagBirA*-RAS bait in Flp-In T-REx 293 cells, 1 µg/mL tetracycline and 50 µM biotin for 24 h; modified RIPA lysis, Streptavidin Sepharose capture, trypsin, LC-MS/MS; hits at SAINT score ≥ 0.75; labelling radius ~10 nm
[1] = biological target: FlagBirA*-HRAS (human) (UniProt P01112)
[2] = biological target: FlagBirA*-NRAS (human) (UniProt P01111)
[3] = biological target: FlagBirA*-KRAS4B (human) (UniProt P01116)

| Substance | binding [1] | binding [2] | binding [3] |
| --- | --- | --- | --- |
| DYNLL1 (from UniProt P63167 1-89) | binds | – | – |
| ANXA2 (from UniProt P07355 1-339) | binds | – | – |
| B2M (from UniProt P61769 21-119) | binds | – | – |
| radixin (from UniProt P35241 1-583) | binds | – | – |
| glucose transporter 1 (from UniProt P11166 1-492) | – | binds | – |
| SLC25A1 (from UniProt P53007 14-311) | – | binds | – |
| RAB21 (from UniProt Q9UL25 1-225) | binds | – | – |
| STXBP1 (from UniProt P61764 1-594) | binds | – | – |
| RAP2A (from UniProt P10114 1-183) | binds | – | – |
| MAPK1 (from UniProt P28482 1-360) | – | no binding | no binding |
| RALGAPA1 (from UniProt Q6GYQ0 1-2036) | – | – | binds |
| BSG (from UniProt P35613 22-385) | binds | – | – |
| ZDHHC17 (from UniProt Q8IUH5 1-632) | – | binds | – |
| SLC35E1 (from UniProt Q96K37 1-410) | – | binds | – |
| CNKSR3 (from UniProt Q6P9H4 1-555) | – | binds | – |
| RAB11FIP2 (from UniProt Q7L804 1-512) | binds | – | – |

| Substance | binding [1] | binding [2] | binding [3] |
| --- | --- | --- | --- |
| AKT1 (from UniProt P31749 1-480) | – | – | binds |
| CHMP5 (from UniProt Q9NZZ3 1-219) | binds | – | – |
| AKT2 (from UniProt P31751 1-481) | – | binds | – |
| BTN3A1 (from UniProt O00481 30-513) | binds | – | – |
| SLC30A5 (from UniProt Q8TAD4 1-765) | – | binds | – |
| SHKBP1 (from UniProt Q8TBC3 1-707) | – | binds | – |
| SLC9A3R1 (from UniProt O14745 1-358) | binds | – | – |
| SLC30A6 (from UniProt Q6NXT4 1-461) | – | binds | – |
| TC2N (from UniProt Q8N9U0 1-490) | binds | – | – |
| SEC61A1 (from UniProt P61619 1-476) | binds | – | – |
| ANK3 (from UniProt Q12955 1-4377) | – | binds | – |
| VAMP2 (from UniProt P63027 1-116) | binds | – | – |
| SNX3 (from UniProt O60493 1-162) | binds | – | – |
| MAPK3 (from UniProt P27361 1-379) | no binding | no binding | no binding |
| PLXNB2 (from UniProt O15031 20-1838) | – | – | binds |
| SNX12 (from UniProt Q9UMY4 1-162) | binds | – | – |

No constants are given. Whether binding was seen depends on the method and setting. Binding seen in cells or lysates may run through a third protein. Here binding means that the protein was enriched with, or labelled near, the bait; the list need not be complete. A no says only that the protein was not detected with the bait.
